The assay relates to nude mice, HT29 intrarenal xenograft, tumor weight T/C. As to the kind of experiment: NCI In Vivo Anticancer Drug Screen. Data for tumor model HT29;CX-1 Human Adenocarcinoma (MER+) (intrarenal inoculation) in NU/NU Swiss (nude) mice. The settings on record: T/C endpoint: mean tumor weight change, schedule: Q01DX010 (sc), vehicle: saline, evaluated on day 20, higher T/C = larger tumour. How it is done:
The antitumor activity of compounds was measured in mice bearing transplantable tumors. Survival or tumor size were measured and the results are expressed as the measurement made in the treated group (T) divided by the measurement made in the vehicle treated control group (C). The tumor model used in this assay is HT29;CX-1 Human Adenocarcinoma (MER+) (intrarenal inoculation) in NU/NU Swiss (nude) mice

The list shows only some results of the screen, not a fair sample: it covers a few groups of compounds. Other doses and runs of a compound may be missing. T/C is the treated group as % of the vehicle group. Schedules are NCI's codes, read here as Q, the interval in days (D) or hours (H), X, the number of doses.

In the case of `CN(CCCl)CCCl`, the T/C reads like this: (dose: 0.13 mg/kg/injection) 129 % of control; (dose: 0.25 mg/kg/injection) 75 % of control; (dose: 0.5 mg/kg/injection) 107 % of control.

These data come from PubChem BioAssay AID206 (DTP/NCI, 2004).
